# Paper PMC12431657, “Discovery and mechanistic insights of dibenzoylmethane as a broad spectrum inhibitor of coronavirus” (PLOS Pathogens, 2025)
# Counter-ions that a name gives are not always drawn. Like-named read-outs stand apart in the source and are kept apart here. In all, about 3,300 compounds went through this assay and about 60 (2%) showed an effect of 50% or more. Some of the results follow.
# Tested on: HCoV-OC43
# Design: species or system RD; HTS, protection from HCoV-OC43 induced cell death, luminescent cell viability (CellCounting-Lite 2.0), inhibition rate
smiles,measurement,setting,value
"O=C(/C=C/c1ccc(O)c(O)c1)OC1[C@H](O)CC(OC(=O)/C=C/c2ccc(O)c(O)c2)(C(=O)O)C[C@H]1O (stereo partly shown) [1,4-Dicaffeoylquinic acid]",OC43 Inhibition rate,"24 h, 10 µM; inhibitor",-0.4%
CC(C)=CC[C@@H](OC(=O)CC(C)(C)O)C1=CC(=O)c2c(O)ccc(O)c2C1=O [β-Hydroxyisovalerylshikonin],OC43 Inhibition rate,"24 h, 10 µM; inhibitor",2.6%
"OCC(Cl)(Cl)Cl [2,2,2-Trichloroethanol]",OC43 Inhibition rate,"24 h, 10 µM; inhibitor",4.2%
CC(C(=O)O)C(=O)O [Methylmalonic acid],OC43 Inhibition rate,"24 h, 10 µM; inhibitor",9.7
CN1CC[C@]23C(=O)C[C@H]4C(=CCO[C@H]5CC(=O)N(c6c(O)cccc62)[C@H]3[C@H]54)C1 [Vomicine],OC43 Inhibition rate,"24 h, 10 µM; inhibitor",1.7%
C[C@H]1O[C@@H](O[C@H]2CC[C@@]3(C)[C@H](CC[C@@H]4[C@@H]3C[C@@H](O)[C@]3(C)[C@@H](C5=CC(=O)OC5)CC[C@]43O)C2)C[C@H](O)[C@@H]1O[C@H]1C[C@H](O)[C@H](O[C@H]2C[C@H](O)[C@H](O[C@@H]3O[C@H](CO)[C@@H](O)[C@H](O)[C@H]3O)[C@@H](C)O2)[C@@H](C)O1 [Deslanoside],OC43 Inhibition rate,"24 h, 10 µM; inhibitor",30.6
C=CCSC [Allyl methyl sulfide],OC43 Inhibition rate,"24 h, 10 µM; inhibitor",0.4
CC1(C)O[C@@H]1COc1c2occc2cc2ccc(=O)oc12 [Heraclenin],OC43 Inhibition rate,"24 h, 10 µM; inhibitor",-0.5%
C/C=C(\C)C(=O)O[C@@H]1C[C@H](O)[C@]23CO[C@H](C(=O)OC)[C@H]2[C@](C)([C@]24O[C@@]2(C)[C@H]2C[C@@H]4O[C@@H]4OC=C[C@@]42O)[C@H](O)[C@@H]2OC[C@@]1(C(=O)OC)[C@H]23 [Azadirachtin B],OC43 Inhibition rate,"24 h, 10 µM; inhibitor",0.3%
Cc1c([C@H](C)[C@@H]2NC[C@@H](C)C[C@H]2O)ccc2c1C[C@H]1[C@H]2CC=C2C[C@@H](O[C@@H]3O[C@H](CO)[C@@H](O)[C@H](O)[C@H]3O)CC[C@@]21C [Veratrosine],OC43 Inhibition rate,"24 h, 10 µM; inhibitor",5.4%
C[C@]12CC[C@@H](O)C[C@H]1CC[C@@H]1[C@@H]2CC[C@]2(C)C(=O)CC[C@@H]12 [Etiocholanolone],OC43 Inhibition rate,"24 h, 10 µM; inhibitor",-1%
c1ccc2c(c1)ccc1c3ccccc3ccc21 [Chrysene],OC43 Inhibition rate,"24 h, 10 µM; inhibitor",-0.5
O=C(O)c1ccc(=O)[nH]c1 [6-Hydroxynicotinic acid],OC43 Inhibition rate,"24 h, 10 µM; inhibitor",-1%
COC1=C[C@]23CCCN2CCc2cc4c(cc2[C@@H]3[C@@H]1O)OCO4 [Cephalotaxine],OC43 Inhibition rate,"24 h, 10 µM; inhibitor",3.2%
CCc1ccc(O)c2cc3c(nc12)-c1cc2c(c(=O)n1C3)COC(=O)[C@]2(O)CC [12-Ethyl-9-hydroxycamptothecin],OC43 Inhibition rate,"24 h, 10 µM; inhibitor",-8.1%
C[C@@H]1C(=O)O[C@H]2[C@H](O)[C@@]34O[C@@H]5OC(=O)[C@H](O)[C@@]56[C@H](C(C)(C)C)[C@H](O)C(OC3=O)[C@]64[C@@]12O (stereo partly shown) [Ginkgolide C],OC43 Inhibition rate,"24 h, 10 µM; inhibitor",0.9%
COc1cc2occc2c2oc(=O)ccc12 [Isobergapten],OC43 Inhibition rate,"24 h, 10 µM; inhibitor",1%
CCCCCCCCC(=O)NCc1ccc(O)c(OC)c1 [Nonivamide],OC43 Inhibition rate,"24 h, 10 µM; inhibitor",0
C=Cc1cc(O)cc2ccc3c(C)c(O)ccc3c12 [Dehydroeffusol],OC43 Inhibition rate,"24 h, 10 µM; inhibitor",20%
CC(=O)/C=C/c1ccccc1 [Benzylideneacetone],OC43 Inhibition rate,"24 h, 10 µM, inhibitor",-0.8%
COC[C@]12CN(C)C3[C@@H]4[C@H](OC)[C@H]1[C@@]3([C@@H](OC)C[C@H]2O)[C@@H]1C[C@@]2(O)[C@H](OC(=O)c3ccccc3)[C@@H]1[C@]4(O)[C@@H](O)[C@@H]2OC [Benzoylmesaconine],OC43 Inhibition rate,"24 h, 10 µM; inhibitor",1.5%
COC1=CC(=O)O[C@@H](/C=C/c2ccccc2)C1 [Kavain],OC43 Inhibition rate,"24 h, 10 µM, inhibitor",0%
CC(C)[C@@H]1[C@H]2OC(=O)[C@@H]1[C@@H]1CC[C@@H]3CN(C)[C@H]2[C@@]31C [Dendrobine],OC43 Inhibition rate,"24 h, 10 µM; inhibitor",-0.3%
CC(C)(C)[C@]1(O)C[C@@H]2OC(=O)C[C@@]23C(=O)O[C@@H]2OC(=O)[C@H](O)[C@]213 [Bilobalide],OC43 Inhibition rate,"24 h, 10 µM; inhibitor",0%
C[C@]12CC[C@H](O)C[C@H]1CC[C@@H]1[C@@H]2C(=O)[C@H](O)[C@]2(C)[C@@H](c3ccc(=O)oc3)CC[C@]12O [Pseudobufarenogin],OC43 Inhibition rate,"24 h, 10 µM; inhibitor",25.2%
NC(=O)[C@H](Cc1ccccc1)NC(=O)[C@H](Cc1c[nH]c2ccccc12)NC(=O)[C@@H]1CCCN1C(=O)[C@@H](N)Cc1ccc(O)cc1 [Endomorphin 1],OC43 Inhibition rate,"24 h, 10 µM; inhibitor",-4.1%
COc1cc(OC)c(OC)cc1C=O [Asaraldehyde],OC43 Inhibition rate,"24 h, 10 µM; inhibitor",-0.4%
COC1=CC(=O)O[C@@H](/C=C/c2ccccc2)C1 [(+)-Kavain],OC43 Inhibition rate,"24 h, 10 µM, inhibitor",-0.4%
COc1c(O)cc2c3c1-c1ccccc1C[C@H]3N(C)CC2 [O-Nornuciferine],OC43 Inhibition rate,"24 h, 10 µM; inhibitor",2.7%
CC1=CC(=O)[C@@H](O)[C@]2(C)[C@H]3[C@@H](O)[C@H](O)[C@]4(CO)OC[C@@]35[C@@H](C[C@@H]12)OC(=O)[C@H](O)[C@]54O [Yadanziolide A],OC43 Inhibition rate,"24 h, 10 µM; inhibitor",17.1%
C[C@]12CC[C@H](O)C[C@H]1CC[C@@H]1[C@@H]2[C@H](O)C(=O)[C@]2(C)[C@@H](c3ccc(=O)oc3)CC[C@]12O [Arenobufagin],OC43 Inhibition rate,"24 h, 10 µM; inhibitor",0.4%
COC[C@]12CN(C)[C@@H]3[C@@H]4[C@H](OC)[C@H]1[C@@]3([C@@H](OC)C[C@H]2O)[C@@H]1C[C@@]2(O)[C@H](OC(=O)c3ccccc3)[C@@H]1[C@]4(OC(C)=O)[C@@H](O)[C@@H]2OC [Mesaconitine],OC43 Inhibition rate,"24 h, 10 µM; inhibitor",-0.3%
C[C@H]1CC[C@@H]2N(C1)C[C@H]1[C@@H]3C[C@H]4[C@@H](C[C@H](O)[C@H]5C[C@@H](O)CC[C@@]54C)[C@@H]3CC[C@@H]1[C@]2(C)O [Peimine],OC43 Inhibition rate,"24 h, 10 µM; inhibitor",-0.4%
CCCCC/C=C/C/C=C/CCCCCCCC(=O)O[C@H](COC(=O)CCCCCCCCCCCCCCC)COP(=O)([O-])OCC[N+](C)(C)C [Lecithin],OC43 Inhibition rate,"24 h, 10 µM; inhibitor",-0.3
COc1cc2c(cc1O)C[C@@H]1NCCc3cc(O)c(OC)c-2c31 [Laurolitsine (hydrochloride)],OC43 Inhibition rate,"24 h, 10 µM; inhibitor",-0.3%
C[C@H](O)c1ccccc1 [(S)-(-)-Phenylethanol],OC43 Inhibition rate,"24 h, 10 µM; inhibitor",0.2
NC(=O)Cc1ccccc1 [2-Phenylacetamide],OC43 Inhibition rate,"24 h, 10 µM; inhibitor",-1.1%
